Reference: article PMC6588657 (2018)
Results are given in words; binding and its absence hold for the method and conditions named. Binding seen in cells or lysates may run through a third protein. A result given as binding can be weak or reduced; the word gives no strength.

Protein sequences, listed by entry. Tags and fused reporters are not part of them. Lines headed by an entry give the natural chain unless they say otherwise; changes in a name come on top.
UniProt Q9C0E8: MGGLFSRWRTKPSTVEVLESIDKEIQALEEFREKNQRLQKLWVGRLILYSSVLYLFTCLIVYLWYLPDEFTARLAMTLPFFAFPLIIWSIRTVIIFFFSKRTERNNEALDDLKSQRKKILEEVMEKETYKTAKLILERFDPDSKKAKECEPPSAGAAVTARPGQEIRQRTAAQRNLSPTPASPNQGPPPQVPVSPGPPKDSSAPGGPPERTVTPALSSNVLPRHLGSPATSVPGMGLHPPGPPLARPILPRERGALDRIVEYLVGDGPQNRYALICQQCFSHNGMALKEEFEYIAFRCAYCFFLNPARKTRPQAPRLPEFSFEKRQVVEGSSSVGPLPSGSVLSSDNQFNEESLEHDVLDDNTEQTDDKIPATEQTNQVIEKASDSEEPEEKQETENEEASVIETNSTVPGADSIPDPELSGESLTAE

Legend:
Assay in all cases: co-IP; Lnp-Myc co-expressed with Lnp-Flag or Flag-tagged truncations in COS-7 cells; Flag-tagged protein precipitated by anti-Flag agarose from lysates with 1% Triton X-100; blot with anti-Flag and anti-Myc
LnpΔZnF (human) = LnpΔZnF (human) (UniProt Q9C0E8)
LnpΔCC1 (human) = LnpΔCC1 (human) (UniProt Q9C0E8)
LnpΔLNPARK (human) = LnpΔLNPARK (human) (UniProt Q9C0E8)
LnpΔTM (human) = LnpΔTM (human) (UniProt Q9C0E8)

Measured: binding

C-terminal Myc-tagged wild-type human Lnp (from UniProt Q9C0E8 1-428)
binds: all assays above
